Consider 3 molecules from article PMC10652104.

Chains of the proteins cited; added tags and fusions are not shown.
UniProt Q13576: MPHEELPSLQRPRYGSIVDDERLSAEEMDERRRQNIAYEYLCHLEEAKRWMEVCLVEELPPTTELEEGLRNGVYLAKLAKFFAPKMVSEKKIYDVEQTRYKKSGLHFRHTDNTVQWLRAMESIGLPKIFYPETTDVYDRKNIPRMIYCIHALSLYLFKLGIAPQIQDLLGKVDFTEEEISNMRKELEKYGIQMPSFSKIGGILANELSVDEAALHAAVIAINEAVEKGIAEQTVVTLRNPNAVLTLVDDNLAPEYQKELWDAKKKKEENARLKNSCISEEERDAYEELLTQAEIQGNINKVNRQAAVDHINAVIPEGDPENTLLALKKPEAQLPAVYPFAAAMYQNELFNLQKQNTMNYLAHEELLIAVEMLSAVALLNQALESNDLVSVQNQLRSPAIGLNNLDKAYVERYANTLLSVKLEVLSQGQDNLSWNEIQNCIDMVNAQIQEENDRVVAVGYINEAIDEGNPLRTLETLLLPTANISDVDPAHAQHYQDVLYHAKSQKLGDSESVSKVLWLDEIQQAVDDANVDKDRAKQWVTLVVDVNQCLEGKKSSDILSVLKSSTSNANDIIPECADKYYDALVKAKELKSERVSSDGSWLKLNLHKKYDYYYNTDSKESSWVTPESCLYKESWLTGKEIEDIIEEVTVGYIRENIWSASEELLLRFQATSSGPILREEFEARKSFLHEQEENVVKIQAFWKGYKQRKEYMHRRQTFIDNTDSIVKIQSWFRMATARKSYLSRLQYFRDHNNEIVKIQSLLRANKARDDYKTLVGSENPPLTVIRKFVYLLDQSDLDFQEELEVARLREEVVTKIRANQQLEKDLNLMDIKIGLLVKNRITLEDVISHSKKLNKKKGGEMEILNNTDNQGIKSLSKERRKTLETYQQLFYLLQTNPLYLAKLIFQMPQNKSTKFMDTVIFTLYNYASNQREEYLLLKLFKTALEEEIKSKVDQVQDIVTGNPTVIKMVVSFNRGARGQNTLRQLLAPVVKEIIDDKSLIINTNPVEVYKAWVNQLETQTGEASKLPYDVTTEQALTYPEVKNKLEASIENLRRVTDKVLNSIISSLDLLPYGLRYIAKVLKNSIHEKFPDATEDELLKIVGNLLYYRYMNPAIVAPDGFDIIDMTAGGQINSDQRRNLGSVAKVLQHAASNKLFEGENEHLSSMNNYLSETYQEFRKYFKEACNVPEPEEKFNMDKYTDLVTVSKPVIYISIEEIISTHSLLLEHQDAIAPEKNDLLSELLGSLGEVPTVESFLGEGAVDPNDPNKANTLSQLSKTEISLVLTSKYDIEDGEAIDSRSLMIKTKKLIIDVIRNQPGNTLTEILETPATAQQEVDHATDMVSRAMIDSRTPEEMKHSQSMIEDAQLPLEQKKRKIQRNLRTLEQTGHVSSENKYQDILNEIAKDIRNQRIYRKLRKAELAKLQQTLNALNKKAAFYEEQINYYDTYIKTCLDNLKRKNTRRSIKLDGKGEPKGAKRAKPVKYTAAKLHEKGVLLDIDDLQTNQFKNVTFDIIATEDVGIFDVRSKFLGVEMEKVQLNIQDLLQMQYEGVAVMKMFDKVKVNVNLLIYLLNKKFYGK
UniProt Q3UQ44: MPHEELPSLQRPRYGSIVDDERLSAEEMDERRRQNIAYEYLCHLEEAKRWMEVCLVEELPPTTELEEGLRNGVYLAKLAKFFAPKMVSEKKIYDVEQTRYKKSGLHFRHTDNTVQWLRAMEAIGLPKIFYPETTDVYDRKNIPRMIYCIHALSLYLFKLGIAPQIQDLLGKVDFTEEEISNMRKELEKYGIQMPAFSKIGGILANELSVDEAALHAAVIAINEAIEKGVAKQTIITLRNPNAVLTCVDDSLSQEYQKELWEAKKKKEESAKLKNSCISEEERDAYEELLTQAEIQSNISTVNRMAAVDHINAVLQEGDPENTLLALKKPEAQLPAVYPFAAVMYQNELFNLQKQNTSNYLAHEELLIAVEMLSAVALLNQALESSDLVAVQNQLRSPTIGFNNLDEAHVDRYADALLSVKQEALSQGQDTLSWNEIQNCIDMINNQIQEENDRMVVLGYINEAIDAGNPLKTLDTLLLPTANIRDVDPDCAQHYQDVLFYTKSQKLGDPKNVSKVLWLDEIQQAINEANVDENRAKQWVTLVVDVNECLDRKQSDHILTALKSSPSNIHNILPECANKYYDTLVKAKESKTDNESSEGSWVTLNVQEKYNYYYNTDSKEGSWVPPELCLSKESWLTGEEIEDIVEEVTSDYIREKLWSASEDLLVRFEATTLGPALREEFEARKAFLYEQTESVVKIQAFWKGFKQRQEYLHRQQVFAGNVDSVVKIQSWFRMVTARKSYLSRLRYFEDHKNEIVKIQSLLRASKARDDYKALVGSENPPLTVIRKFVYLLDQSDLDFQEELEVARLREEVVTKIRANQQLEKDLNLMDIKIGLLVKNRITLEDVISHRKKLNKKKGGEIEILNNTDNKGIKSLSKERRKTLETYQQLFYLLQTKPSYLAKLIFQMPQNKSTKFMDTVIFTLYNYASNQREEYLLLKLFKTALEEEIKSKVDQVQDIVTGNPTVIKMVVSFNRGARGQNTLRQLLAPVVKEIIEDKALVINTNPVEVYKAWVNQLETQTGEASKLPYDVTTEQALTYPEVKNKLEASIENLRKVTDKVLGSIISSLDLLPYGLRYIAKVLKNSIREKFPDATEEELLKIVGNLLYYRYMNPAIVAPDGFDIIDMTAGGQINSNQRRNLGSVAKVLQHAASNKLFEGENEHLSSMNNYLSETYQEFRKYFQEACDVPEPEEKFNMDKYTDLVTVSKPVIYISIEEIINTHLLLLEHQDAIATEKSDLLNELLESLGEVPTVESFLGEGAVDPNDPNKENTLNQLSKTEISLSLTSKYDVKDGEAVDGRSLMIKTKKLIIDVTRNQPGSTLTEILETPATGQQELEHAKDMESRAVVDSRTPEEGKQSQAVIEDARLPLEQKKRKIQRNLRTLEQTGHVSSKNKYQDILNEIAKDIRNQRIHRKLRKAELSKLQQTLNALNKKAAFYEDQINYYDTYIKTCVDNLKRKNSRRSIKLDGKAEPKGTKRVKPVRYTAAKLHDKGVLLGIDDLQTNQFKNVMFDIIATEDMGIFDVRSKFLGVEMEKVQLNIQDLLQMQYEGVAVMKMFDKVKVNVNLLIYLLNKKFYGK
UniProt P35568: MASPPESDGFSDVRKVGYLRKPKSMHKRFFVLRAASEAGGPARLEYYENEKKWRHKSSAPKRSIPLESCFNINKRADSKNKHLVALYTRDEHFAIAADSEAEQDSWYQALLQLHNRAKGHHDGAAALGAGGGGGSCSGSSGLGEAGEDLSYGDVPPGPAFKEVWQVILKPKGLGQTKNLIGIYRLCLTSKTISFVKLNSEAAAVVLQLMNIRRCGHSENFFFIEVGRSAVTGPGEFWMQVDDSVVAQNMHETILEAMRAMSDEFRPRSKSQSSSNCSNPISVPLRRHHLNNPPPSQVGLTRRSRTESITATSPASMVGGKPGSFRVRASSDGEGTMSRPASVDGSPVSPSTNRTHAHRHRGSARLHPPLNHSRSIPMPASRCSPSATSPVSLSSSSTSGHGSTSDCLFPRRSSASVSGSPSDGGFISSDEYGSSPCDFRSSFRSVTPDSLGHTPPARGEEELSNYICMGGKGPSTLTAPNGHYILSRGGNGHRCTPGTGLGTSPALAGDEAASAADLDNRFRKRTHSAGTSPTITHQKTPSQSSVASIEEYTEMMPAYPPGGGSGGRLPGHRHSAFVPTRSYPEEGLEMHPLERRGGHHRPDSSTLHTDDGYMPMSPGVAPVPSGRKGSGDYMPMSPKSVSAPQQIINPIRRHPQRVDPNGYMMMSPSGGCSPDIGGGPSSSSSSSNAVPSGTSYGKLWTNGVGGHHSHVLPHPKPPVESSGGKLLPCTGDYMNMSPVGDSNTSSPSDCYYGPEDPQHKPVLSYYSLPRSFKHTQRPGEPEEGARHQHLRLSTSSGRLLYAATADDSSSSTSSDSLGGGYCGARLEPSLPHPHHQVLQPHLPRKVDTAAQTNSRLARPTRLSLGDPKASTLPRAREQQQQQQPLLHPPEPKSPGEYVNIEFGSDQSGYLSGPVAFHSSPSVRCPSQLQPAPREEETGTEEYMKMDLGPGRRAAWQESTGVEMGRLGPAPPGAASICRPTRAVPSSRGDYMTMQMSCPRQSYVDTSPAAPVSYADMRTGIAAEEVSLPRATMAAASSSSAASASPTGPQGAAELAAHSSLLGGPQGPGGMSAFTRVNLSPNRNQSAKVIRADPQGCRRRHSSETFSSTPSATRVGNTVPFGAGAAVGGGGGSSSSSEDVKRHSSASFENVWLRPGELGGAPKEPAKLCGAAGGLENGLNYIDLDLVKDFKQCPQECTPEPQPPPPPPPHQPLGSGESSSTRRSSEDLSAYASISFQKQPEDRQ

Where two headings read alike, the source gives them in different places. No constants are given. Whether binding was seen depends on the method and setting. Binding seen in cells or lysates may run through a third protein. Some binding calls cover weakened binding; strength is not graded here.

In assay [1] the target is IQ motif-containing GTPase activating protein 2 (IQGAP2), human, in HEK293T cells (human (endogenous in HEK293T)) (UniProt Q13576). As to the kind of experiment: co-IP; HEK293T cell lysate in 1% NP-40 lysis buffer (25 mM Hepes pH 7.8, 150 mM NaCl, 5 mM EDTA, 0.5 mM CaCl2); protein A/G magnetic beads prebound with anti-IQGAP2 (ab181127, 3 ug) or IgG control, overnight; blots of the precipitate.

Assay [2] concerns the target IQ motif-containing GTPase activating protein 2 (IQGAP2), mouse liver (mouse (endogenous in liver)) (UniProt Q3UQ44). As to the kind of experiment: co-IP; wildtype mouse liver lysate (fed and 24-h fasted mice) in 1% NP-40 lysis buffer; protein A/G magnetic beads prebound with anti-IQGAP2 (ab181127, 3 ug) or IgG control, overnight; blot for GYS2.
Assay [3] concerns the target IQ motif-containing GTPase activating protein 2 (IQGAP2), human, in HEK293T cells (human (endogenous in HEK293T)) (UniProt Q13576). Put plainly: co-IP; HEK293T cell lysate in 1% NP-40 lysis buffer (25 mM Hepes pH 7.8, 150 mM NaCl, 5 mM EDTA, 0.5 mM CaCl2); protein A/G magnetic beads prebound with anti-IQGAP2 (ab181127, 3 ug) or IgG control, overnight; blots of the precipitate. This is another data set of the same source.

As for “insulin receptor substrate 1 (IRS1), in HEK293T cells (from UniProt P35568 1-1242)”, in assay [1], the binding result is “binds”.

B1: glycogen synthase (GYS2), mouse liver (protein, UniProt Q8VCB3 1-704)
chain: MLRGRSLSVTSLGGLPVWEAERLPVEDLLLFEVSWEVTNKVGGICTVIQTKAKTTADEWGENYFLIGPYFEHNMKTQVEQCEPTNDAVRKAVDAMNKHGCQVHFGRWLIEGSPYVVLFDISSSAWNLDRWKGDFWEACGVGIPHHDREANDMLIFGSLTAWFLKEVTDHADGKHVIAQFHEWQAGTGLILSRARKLPIATVFTTHATLLGRYLCAANIDFYNQLDKFDIDKEAGERQIYHRYCMERASVHCAHVFTTVSEITAIEAEHMLKRKPDVVTPNGLNVKKFSAVHEFQNLHAMYKARIQDFVRGHFYGHLDFDLEKTLFLFIAGRYEFSNKGADIFLESLSRLNFLLRMHKSNVTVVVFFIMPAKTNNFNVETLKGQAVRKQLWDTVHCLKEKFGKKLYDGLLRGEIPDMNSILDRDDLTIMKRAIFSTQRQSLPPVTTHNMIDDSTDPILSTIRRIGLFNNRADRVKVILHPEFLSSTSPLLPMDYEEFVRGCHLGVFPSYYEPWGYTPAECTVMGIPSVTTNLSGFGCFVQEHVADPTAYGIYIVDRRFRSPDDSCNQLTQFLYGFCKQSRRQRIIQRNRTERLSDLLDWRYLGRYYQHARHLTLSRAFPDKFHLEPTSPPTTDGFKYPRPSSVPPSPSGSQASSPQCSDAEDEEDEDERYDEEEEAERDRLNIKSPFSLNHFPKGKKKLHGEYKN
For the molecule B1, the binding result in assay [2] was “binds”.

B2: glycogen synthase (GYS2), in HEK293T cells (protein, UniProt P54840 1-703)
chain: MLRGRSLSVTSLGGLPQWEVEELPVEELLLFEVAWEVTNKVGGIYTVIQTKAKTTADEWGENYFLIGPYFEHNMKTQVEQCEPVNDAVRRAVDAMNKHGCQVHFGRWLIEGSPYVVLFDIGYSAWNLDRWKGDLWEACSVGIPYHDREANDMLIFGSLTAWFLKEVTDHADGKYVVAQFHEWQAGIGLILSRARKLPIATIFTTHATLLGRYLCAANIDFYNHLDKFNIDKEAGERQIYHRYCMERASVHCAHVFTTVSEITAIEAEHMLKRKPDVVTPNGLNVKKFSAVHEFQNLHAMYKARIQDFVRGHFYGHLDFDLEKTLFLFIAGRYEFSNKGADIFLESLSRLNFLLRMHKSDITVMVFFIMPAKTNNFNVETLKGQAVRKQLWDVAHSVKEKFGKKLYDALLRGEIPDLNDILDRDDLTIMKRAIFSTQRQSLPPVTTHNMIDDSTDPILSTIRRIGLFNNRTDRVKVILHPEFLSSTSPLLPMDYEEFVRGCHLGVFPSYYEPWGYTPAECTVMGIPSVTTNLSGFGCFMQEHVADPTAYGIYIVDRRFRSPDDSCNQLTKFLYGFCKQSRRQRIIQRNRTERLSDLLDWRYLGRYYQHARHLTLSRAFPDKFHVELTSPPTTEGFKYPRPSSVPPSPSGSQASSPQSSDVEDEVEDERYDEEEEAERDRLNIKSPFSLSHVPHGKKKLHGEYKN
Consider B2, for which, in assay [3], the binding result is on record as “binds”.
